Assay results published in article PMC12040169 (PLOS Biology, 2025).
Some of the results follow.

system: T1, CTL2-GFP (C. trachomatis L2/434/Bu, GFP-expressing); parameters: species or system HeLa; Intracellular C. trachomatis growth in HeLa cells, bulk GFP fluorescence relative to DMSO; settings: bulk GFP, single well; 28.5 h, 10 µM; inhibitor
T1 construct: L2/434/Bu, GFP-expressing

Row | SMILES | % of control remaining [%]
1 | COc1ccc(F)cc1-c1ccccc1CC1(C(=O)NCCc2ccccc2)CCOCC1 [CBK286424] | 82.9107
2 | Cn1c2ccccc2c2ncn(CCS)c(=O)c21 [CBK288412] | 100.386
3 | Cc1[nH]c(C(=O)NCCc2ccco2)c(C)c1C(=O)OC(C)C [CBK295180] | 162.543
4 | Cc1nnc(S)n1CC(=O)n1c2c(c3ccccc31)CCCC2 [CBK266244] | 163.124
5 | CN(C)S(=O)(=O)N(CC(=O)Nc1ccc2c(c1)OCO2)c1ccccc1 [CBK268481] | 64.2777
6 | Cc1ccc(C(=O)O)cc1S(=O)(=O)NCCCO [CBK267171] | 129.457
7 | Cc1noc(-c2cn(C)nc2C2CCCCN2C(=O)C2CC2)c1C (centres unmarked) [CBK283410] | 106.074
8 | Cc1ccc(S(=O)(=O)N2CCOCC2)cc1C(=O)O [CBK262256] | 85.7983
9 | O=C(CC1S\C(=N/N=C/C=C/c2ccccc2)N=C1O)Nc1ccc(C(=O)O)cc1 (centres unmarked) [CBK263711] | 110.28
10 | Cc1occc1-c1nnc(SCC(=O)c2ccc3c(c2)OCCO3)o1 [CBK268773] | 133.115
11 | C(=N\c1ccc(Cc2ccc(/N=C/c3ccc[nH]3)cc2)cc1)/c1ccc[nH]1 [CBK261282] | 96.9913
12 | Cc1cnccc1-c1c[nH]nc1C1CCCN1C(=O)c1ccccc1 (centres unmarked) [CBK285499] | 117.024
13 | O=C(c1cc(F)c(F)cc1F)N1CCC2(CCN(CCN3CCOCC3)C2)C1 (centres unmarked) [CBK132145C] | 164.717
14 | Cc1c[nH]c(CN(C)C(=O)c2cccc(NC(=O)C3CCCC3)c2)n1 [CBK307282] | 126.478
15 | N#Cc1cnccc1N1CC2COCCC2(C(=O)N2CCCC2)C1 (centres unmarked) [CBK304731] | 110.589
16 | COc1ccc(S(=O)(=O)N2CCN(CCN3C(=O)c4cccc5cccc(c45)C3=O)CC2)cc1[N+](=O)[O-] [CBK263301] | 126.347
17 | CCn1c(=O)n(CC(=O)N2CCCCC2C)c2cccnc21 (centres unmarked) [CBK283896] | 84.089
18 | FC(F)(F)Oc1ccc(-c2c[nH]c([C@@H]3COCCN3C3CCNCC3)n2)cc1 [CBK289312] | 169.002
19 | CCOc1ccc(S(=O)(=O)NC(C)C(=O)O)cc1C (centres unmarked) [CBK270178] | 73.5627
20 | O=C1NC2(CCN(C(=O)c3ccccc3F)CC2)Oc2ccccc21 [CBK283997] | 137.288
21 | Cc1cc(=O)n(CC(=O)NC(Cc2ccncc2)[C@H]2C[C@H](O)C2)nc1C (some centres unmarked) [CBK306641] | 172.913
22 | COc1ccc2cc3c(nc2c1)Sc1nncn1N=C3 [CBK021248] | 125.037
23 | NS(=O)(=O)c1ccc(CCNC=C2C(=O)c3ccccc3C2=O)cc1 [CBK262997] | 100
24 | Cc1cc(C(F)(F)F)nc(SCC(=O)N2c3ccccc3Sc3ccccc32)n1 [CBK268078] | 76.1861
25 | Cc1csc2c(C3CCN(C(=O)C4CC4)CC3)nc(C)n12 [CBK285241] | 130.576

Row | SMILES | % of control remaining [%]
26 | CCc1c(C)sc(NC(=O)c2ccc(Br)o2)c1C#N [CBK021662] | 100
27 | Cc1ccc2oc([C@H]3CCN(S(C)(=O)=O)C3)nc2c1 [CBK289371] | 143.035
28 | CCCC/C=C/c1nccnc1N[C@@H](C)c1ccccc1 [CBK037138] | 140.862
29 | CCOc1ccc(-n2c(SCC(=O)Nc3cc(C(=O)O)ccc3Cl)nc3ccccc3c2=O)cc1 [CBK297512] | 107.702
30 | CC(=O)Nc1cccc(-n2nnnc2SCC(=O)N2CCNC2=O)c1 [CBK305043] | 102.158
31 | COCc1cccc(-c2nccnc2OC)c1 [CBK106956] | 158.855
32 | OCC1CCCN1c1nccnc1-c1cccs1 (centres unmarked) [CBK089060] | 105.002
33 | CC(C)(C)c1nnc2sc(-c3cccnc3)nn12 [CBK287289] | 104.772
34 | O=C(Oc1ccc(/C=N/c2ccc(-c3nc4ccccc4s3)c(O)c2)cc1)c1ccc(Cl)cc1 [CBK261234] | 100
35 | NC(=O)C1(N2CCCCC2)CCN(C(=S)Nc2ccc(F)c(Cl)c2)CC1 [CBK267165] | 190.095
36 | CC(C)CN1CCC(NC(=O)c2csc(-c3cnn(C)c3)n2)CC1 [CBK305790] | 100.849
37 | COc1cccc(-c2nn(CCC#N)cc2C(=O)N2CCCCC2)c1 [CBK305942] | 96.5529
38 | O=C(O)c1ccc(N2N=C(c3ccccc3)/C(=C\c3cccc([N+](=O)[O-])c3O)C2=O)cc1 [CBK265615] | 117.893
39 | COc1ccc(CN2CCCc3c(C)nc(C4CCCN(C(=O)C5CCC5)C4)nc32)cc1 (centres unmarked) [CBK286117] | 75.6242
40 | O=c1ccc(O)nn1CN1CCN(Cc2ccccc2)CC1 [CBK265539] | 125.849
41 | C/C(=N\NC(N)=S)C(=O)O [CBK261575] | 48.8317
42 | COc1cccc(CCN(Cc2ccc(S(=O)(=O)N3CCOC3=O)cc2)Cc2cccc(OCCO)c2)c1 [CBK014806] | 106.507
43 | CC(C)c1ccc(S(=O)(=O)NCCc2ccccc2)cc1 [CBK044426] | 136.924
44 | COc1ccccc1NC(=O)N1C[C@@H]2C[C@H](C1)c1c(-c3cccc(C#N)c3)ccc(=O)n1C2 [CBK289197] | 141.674
45 | CN1CCN(c2ccc(-c3cncc(NCCc4ccccn4)n3)cn2)CC1 [CBK037135] | 130.295
46 | Cc1ccc2c(c1)C1(CC(=O)N(C)C1=O)C(=O)N2CCOc1cccc2c1OCCO2 (centres unmarked) [CBK075529] | 140.33
47 | N#CC1CCCc2c1[nH]c1ccc(Br)cc21 (centres unmarked) [CBK026475] | 51.564
48 | Cc1cc(OCC(=O)N2CCN(c3ccccc3F)CC2)no1 [CBK305898] | 118.577
49 | c1ccc(Cn2cc(-c3cnc(N4CCOCC4)c4nccn34)cn2)cc1 [CBK091289] | 139
50 | C=CCn1ncc(CN2CCC3(O)CCCCC3C2)c1C (centres unmarked) [CBK283029] | 135.407

Looked up above.
% of control remaining [%] with Cc1ccc(S(=O)(=O)N2CCOCC2)cc1C(=O)O [CBK262256] is entered as 85.7983
% of control remaining [%] with O=C(Oc1ccc(/C=N/c2ccc(-c3nc4ccccc4s3)c(O)c2)cc1)c1ccc(Cl)cc1 [CBK261234] is entered as 100
% of control remaining [%] with CCn1c(=O)n(CC(=O)N2CCCCC2C)c2cccnc21 (centres unmarked) [CBK283896] is entered as 84.089
